From PubChem BioAssay AID1508600 (Functional Genomics Laboratory (NCATS/FGL), 2020)
Screen size: about 53,000 sequences; about 3,700 (7%) were called active.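 How the source made its calls: active means gene knockdowns whose robust z-score for IL-1 alpha signal is at least 2 or at most -2, so actives lie on both sides; inactive means the rest.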 The list shows a part of the results.

Experiment: Components of the Cytosolic LPS Sensing Pathway: Gene Identification via Genome-wide siRNA Screen;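 further: robust z of the log signal after scaling to non-targeting control siRNA wells of the plate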
Details: RAW264.7 macrophages, IL-1a HTRF, actives lie on both sides, screened at 100 nM (by protocol), cells primed 5 h with Pam3CSK4 first
How it was run: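 IL-1a HTRF of supernatants after 24 hour LipidA transfection of Pam3CSK4-primed (5 hours) RAW264.7 cells, 48h post-siRNA transfection (100 nM). Scores: percent of plate negative-control median, then log-based robust z-score.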

Sequence	z-score
GCUGCGUUACUGGAAGUUUTT against Loxl2	inactive: 1.12
GCAGUCAAAACCUAAAAGUTT against Slc25a40	inactive: 0.116
GGACAAGUAUGAAUGUCUATT against Ptk2b	inactive: 1.25
CCCUGUCAUGUCAGUGUGATT against Nat8f1	inactive: -1.48
GGAAAAGAUGAAGUGGUUUTT against H2bc6	inactive: 0.0279
GGCUGAAAACAUCGUGGUCTT against Sncg	inactive: 0.617
GGUGUAGACUAAGACAAUATT against Trmt1	inactive: -0.156
GGACUCUGAAACCAUUAAATT against Fmo4	inactive: -1.4
GGGCAUUAAAGAAUCCAUUTT against Olfr1008	inactive: -0.202
GGCAUUUGAAGAUGAAAUGTT against Bzw2	inactive: -0.00635
GGGAAGAAGCUUUGUGAUUTT against Adprm	inactive: -1.15
GCACGUGAUGCAAGUUCUATT against Rmnd1	inactive: -0.74
GGAGCUAGAACAGUUUGCCTT against Pou5f1	inactive: 1.34
CCGAUUGAUAAAGUCACAUTT against Zfat	inactive: 0.241
GGCUUUAGUAGACUACUUCTT against Hspa4l	inactive: 0.411
GAUCCUCACGAAAUAGGUATT against Olfr1372-ps1	inactive: 0.737
GCGACAACAUGCUUAGCACTT against Chil1	inactive: -0.695
GGCAUUCAGAACUUACUAUTT against Ofd1	inactive: 0.612
GGCCGGGAAGAAAGAGAAATT against Ptn	inactive: 0.514
GGCCCUGAGAAACUAUAGGTT against Myh1	inactive: 0.437
GCCGUUCAAAAAUUUGUCCTT against Cyp11b2	inactive: 0.721
CGAAGCUGCAAAGGAGAAGTT against Igf1	inactive: 0.505
CGGUUCCACUUCAAAUGACTT against Hsd17b2	inactive: 0.72

Exported bar-delimited: part of the list above
Sequence | z-score
GAUCCUCACGAAAUAGGUATT against Olfr1372-ps1 | inactive: 0.737
GCGACAACAUGCUUAGCACTT against Chil1 | inactive: -0.695

(further entries)

Sequence	z-score
GCAUCACUAGAUUUGGGCATT against Plekhg4	inactive: 0.128
GGAAGAUGUGAAGAUUUAATT against Acvr1b	inactive: 1.89
CGACAUAAAGGCUUGUCAATT against Rabl3	inactive: 0.518
GGAGAUUCGCAUGCUCAUCTT against Ankrd44	inactive: -1.77
GCACCUAGAUUGAUCAUAGTT against Olfr1183	inactive: -0.894
GGAAAGGUGACCAAGAACUTT against Cadm3	inactive: -1.34
GGUGUUUCGUCUACCCUUCTT against Olfr370	inactive: 1.49
GCGACACAGUAUGCUUAAGTT against Ggnbp2	inactive: -1.63
GGGAACUCCACUAAGGAAATT against Slc26a1	inactive: 1.8
GGUGGUCCGUAAAGUGGUUTT against Slc25a15	inactive: 1.75
GGACCAGAUUCACCAUAUUTT against Ifi44	inactive: -1.99
GGAAUUCUUUCCAAACUGGTT against Steap1	inactive: -0.0141
GGAAAAUAAAAUUGCAUGCTT against Oas1d	inactive: 0.15
GCUUAAUCAACUGGUACUATT against Olfr19	inactive: -1.7
GAGAGGGCAUAAUGGUUUUTT against H3c3	active: 4.58
GGCAUGAAUACAUCACAGCTT against Vmn1r220	inactive: -0.808
GCUGUCAGCAAAUAAAUGCTT against Uqcr10	inactive: 1.24
GGCUGUCAUGGGUGAAUCCTT against Sprr2e	inactive: 0.31
GGAGAAAAGUCUACAGAAATT against Areg	inactive: 0.806
GGGAAAGGAUUUUUACAUUTT against Ctdsp1	inactive: 1.83
GGAUAUUACACCUACUUCUTT against Mmp24	inactive: -0.25
GGAGAAGGUGCUCAAGUUGTT against Henmt1	active: -2.45
GGACCAAUCUAGAGCCCAUTT against Krt90	inactive: -0.393

Sequence	z-score
GGGAAAAAGAAAGCCCUUGTT against Olfr706	inactive: 0.883
GGAGACUGUGAAGUUUGUATT against Manf	inactive: -0.511
GGAAAAGAAGACAUUUCUCTT against Osbpl8	inactive: -0.565
CGAAGUACGAGAAACACGUTT against Smim19	inactive: -0.969
GGAUCAGAACACUUUGGCATT against Tsen34	inactive: -0.228
GCCACAACCACCUGAACUUTT against Amigo1	inactive: -0.854
GCUAGUUGGAGCUAGAUUATT against Dock5	inactive: 0.159
GGAACCAAUCCAUAUUUGATT against Tnks	inactive: 1.51
GCCCUAGAUCAGGAGAUCATT against Rps17	inactive: 0.0945
GGUAUAUUGUGCCAGCACATT against Olfr705	inactive: 0.00345
GGGUUUGGAAACUACAUUUTT against Phka2	inactive: 1.57
UGUUACUGGACUCUCCACATT against Olfr320	inactive: 0.372
CUCCGACCAUACUGGAAGATT against Arpp21	inactive: -0.406
CCUUGAUACCUUUCCAUGUTT against 9130008F23Rik	inactive: -0.68
CCACCUCAAGUCAAAGACUTT against Cggbp1	inactive: -0.445
CCUGAGACUGCAUCUUUUCTT against Slc10a7	inactive: -0.693
GUGCUUUUCGACUGCAUGATT against Mfsd4b5	inactive: -0.609
GGACCAAACGAUUUCUCACTT against Olfr284	inactive: -0.438
GGACUUAGGUUUGUUUAAATT against Frat1	inactive: -0.347
GCGAACUCAAGCUGUAACCTT against Grhpr	inactive: -0.665
GGACAACGUGGACUACUGGTT against Pcdh15	inactive: -0.835
GGAAGCUGUCCAAAAUGAGTT against Hnf4a	active: 2.55
